Drawing on article PMC7710684, this text covers binding for one substance.

Protein sequences, listed by entry. Tags and fused reporters are not part of them. Residues count along the entry.
UniProt P02769, residues 25-607: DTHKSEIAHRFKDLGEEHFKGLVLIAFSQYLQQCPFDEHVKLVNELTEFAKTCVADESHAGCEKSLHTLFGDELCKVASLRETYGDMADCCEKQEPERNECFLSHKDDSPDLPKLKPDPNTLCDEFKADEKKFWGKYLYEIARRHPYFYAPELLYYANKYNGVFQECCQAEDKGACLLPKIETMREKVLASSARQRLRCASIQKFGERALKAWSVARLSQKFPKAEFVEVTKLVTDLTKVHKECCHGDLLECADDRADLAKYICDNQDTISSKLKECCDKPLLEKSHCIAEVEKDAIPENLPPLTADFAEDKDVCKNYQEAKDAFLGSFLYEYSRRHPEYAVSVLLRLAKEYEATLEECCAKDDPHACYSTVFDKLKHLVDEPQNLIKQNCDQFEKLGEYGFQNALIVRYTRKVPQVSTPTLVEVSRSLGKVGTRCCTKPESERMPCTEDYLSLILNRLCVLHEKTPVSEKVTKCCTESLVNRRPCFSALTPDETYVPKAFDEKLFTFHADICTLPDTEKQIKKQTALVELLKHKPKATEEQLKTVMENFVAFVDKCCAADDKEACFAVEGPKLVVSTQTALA

The target of experiment [1] is BSA (bovine (from the name BSA)) (UniProt P02769). As to the kind of experiment: far-Western, overlay or dot blot; 5 µg human C1q and 5 µg BSA on 12% SDS-PAGE, on nitrocellulose; 5 µg/ml rTsCRT or fragment in binding buffer with 1 mM CaCl2, 37°C, 2 h; anti-His detection; both purified.
Experiment [2] shares this target. As to the kind of experiment: ELISA; human C1q (0-1.5 µg/ml) or BSA coated in carbonate buffer pH 9.6; 40 nM His-tagged rTsCRT or fragment in 20 mM Tris-HCl pH 7.4, 50 mM NaCl, 1 mM CaCl2, 1 h room temperature; anti-His detection; both purified.

Results are given in words; binding and its absence hold for the method and conditions named.

“recombinant full-length Trichinella spiralis calreticulin (TsCRT, 22-413 aa) (from UniProt A0ABR3K4E4)”: the binding entry is listed as “no binding (tested: 5 µg/ml)” in experiment [1] and “no binding (tested: 40 nM)” in experiment [2].
